Data on 14 targets can be found in the supplement of paper PMC12067093, “Discovery and optimisation of a covalent ligand for TRIM25 and its application to targeted protein ubiquitination” (Chemical Science, 2025).

By UniProt entry, the sequences of proteins in these tests, tags left out. Where a name states a change or a piece, a line headed by the entry shows the natural chain unless it says otherwise.
UniProt Q8TDP1: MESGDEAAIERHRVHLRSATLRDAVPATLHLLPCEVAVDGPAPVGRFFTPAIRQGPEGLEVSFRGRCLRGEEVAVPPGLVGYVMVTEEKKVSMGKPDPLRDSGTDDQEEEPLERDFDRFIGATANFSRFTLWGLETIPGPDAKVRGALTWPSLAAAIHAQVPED
UniProt O43566: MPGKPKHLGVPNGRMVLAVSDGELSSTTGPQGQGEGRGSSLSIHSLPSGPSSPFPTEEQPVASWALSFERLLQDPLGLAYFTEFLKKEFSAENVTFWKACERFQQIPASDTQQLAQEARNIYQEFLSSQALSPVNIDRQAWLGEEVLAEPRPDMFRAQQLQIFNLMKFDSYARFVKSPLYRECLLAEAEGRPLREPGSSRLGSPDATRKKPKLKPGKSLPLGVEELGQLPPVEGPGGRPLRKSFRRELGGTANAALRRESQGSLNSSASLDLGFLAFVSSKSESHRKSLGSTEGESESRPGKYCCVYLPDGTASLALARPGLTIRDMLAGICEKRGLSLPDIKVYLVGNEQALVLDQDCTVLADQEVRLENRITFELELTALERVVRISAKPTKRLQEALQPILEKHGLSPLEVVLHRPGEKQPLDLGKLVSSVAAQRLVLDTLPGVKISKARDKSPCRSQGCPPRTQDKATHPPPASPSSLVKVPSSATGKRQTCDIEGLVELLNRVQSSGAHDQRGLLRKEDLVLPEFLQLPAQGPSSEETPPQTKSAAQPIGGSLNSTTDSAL
UniProt Q96TC7: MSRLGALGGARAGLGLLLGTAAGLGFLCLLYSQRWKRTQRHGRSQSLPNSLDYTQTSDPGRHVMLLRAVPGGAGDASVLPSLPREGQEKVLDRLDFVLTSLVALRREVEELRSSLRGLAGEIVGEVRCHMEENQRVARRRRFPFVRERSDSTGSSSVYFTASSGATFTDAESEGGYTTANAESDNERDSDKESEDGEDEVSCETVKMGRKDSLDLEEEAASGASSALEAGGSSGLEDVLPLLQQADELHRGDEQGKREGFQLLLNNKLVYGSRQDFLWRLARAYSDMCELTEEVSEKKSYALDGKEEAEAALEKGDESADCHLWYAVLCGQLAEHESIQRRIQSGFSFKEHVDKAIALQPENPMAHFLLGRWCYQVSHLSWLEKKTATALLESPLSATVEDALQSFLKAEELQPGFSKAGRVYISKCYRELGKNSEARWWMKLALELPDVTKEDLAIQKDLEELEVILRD
UniProt O14593: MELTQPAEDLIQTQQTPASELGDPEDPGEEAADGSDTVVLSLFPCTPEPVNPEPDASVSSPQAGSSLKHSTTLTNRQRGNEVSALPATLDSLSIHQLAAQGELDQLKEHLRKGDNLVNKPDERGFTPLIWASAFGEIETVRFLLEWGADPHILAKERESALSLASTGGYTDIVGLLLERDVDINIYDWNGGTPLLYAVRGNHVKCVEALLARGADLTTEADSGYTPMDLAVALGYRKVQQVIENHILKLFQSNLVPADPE
UniProt Q13129: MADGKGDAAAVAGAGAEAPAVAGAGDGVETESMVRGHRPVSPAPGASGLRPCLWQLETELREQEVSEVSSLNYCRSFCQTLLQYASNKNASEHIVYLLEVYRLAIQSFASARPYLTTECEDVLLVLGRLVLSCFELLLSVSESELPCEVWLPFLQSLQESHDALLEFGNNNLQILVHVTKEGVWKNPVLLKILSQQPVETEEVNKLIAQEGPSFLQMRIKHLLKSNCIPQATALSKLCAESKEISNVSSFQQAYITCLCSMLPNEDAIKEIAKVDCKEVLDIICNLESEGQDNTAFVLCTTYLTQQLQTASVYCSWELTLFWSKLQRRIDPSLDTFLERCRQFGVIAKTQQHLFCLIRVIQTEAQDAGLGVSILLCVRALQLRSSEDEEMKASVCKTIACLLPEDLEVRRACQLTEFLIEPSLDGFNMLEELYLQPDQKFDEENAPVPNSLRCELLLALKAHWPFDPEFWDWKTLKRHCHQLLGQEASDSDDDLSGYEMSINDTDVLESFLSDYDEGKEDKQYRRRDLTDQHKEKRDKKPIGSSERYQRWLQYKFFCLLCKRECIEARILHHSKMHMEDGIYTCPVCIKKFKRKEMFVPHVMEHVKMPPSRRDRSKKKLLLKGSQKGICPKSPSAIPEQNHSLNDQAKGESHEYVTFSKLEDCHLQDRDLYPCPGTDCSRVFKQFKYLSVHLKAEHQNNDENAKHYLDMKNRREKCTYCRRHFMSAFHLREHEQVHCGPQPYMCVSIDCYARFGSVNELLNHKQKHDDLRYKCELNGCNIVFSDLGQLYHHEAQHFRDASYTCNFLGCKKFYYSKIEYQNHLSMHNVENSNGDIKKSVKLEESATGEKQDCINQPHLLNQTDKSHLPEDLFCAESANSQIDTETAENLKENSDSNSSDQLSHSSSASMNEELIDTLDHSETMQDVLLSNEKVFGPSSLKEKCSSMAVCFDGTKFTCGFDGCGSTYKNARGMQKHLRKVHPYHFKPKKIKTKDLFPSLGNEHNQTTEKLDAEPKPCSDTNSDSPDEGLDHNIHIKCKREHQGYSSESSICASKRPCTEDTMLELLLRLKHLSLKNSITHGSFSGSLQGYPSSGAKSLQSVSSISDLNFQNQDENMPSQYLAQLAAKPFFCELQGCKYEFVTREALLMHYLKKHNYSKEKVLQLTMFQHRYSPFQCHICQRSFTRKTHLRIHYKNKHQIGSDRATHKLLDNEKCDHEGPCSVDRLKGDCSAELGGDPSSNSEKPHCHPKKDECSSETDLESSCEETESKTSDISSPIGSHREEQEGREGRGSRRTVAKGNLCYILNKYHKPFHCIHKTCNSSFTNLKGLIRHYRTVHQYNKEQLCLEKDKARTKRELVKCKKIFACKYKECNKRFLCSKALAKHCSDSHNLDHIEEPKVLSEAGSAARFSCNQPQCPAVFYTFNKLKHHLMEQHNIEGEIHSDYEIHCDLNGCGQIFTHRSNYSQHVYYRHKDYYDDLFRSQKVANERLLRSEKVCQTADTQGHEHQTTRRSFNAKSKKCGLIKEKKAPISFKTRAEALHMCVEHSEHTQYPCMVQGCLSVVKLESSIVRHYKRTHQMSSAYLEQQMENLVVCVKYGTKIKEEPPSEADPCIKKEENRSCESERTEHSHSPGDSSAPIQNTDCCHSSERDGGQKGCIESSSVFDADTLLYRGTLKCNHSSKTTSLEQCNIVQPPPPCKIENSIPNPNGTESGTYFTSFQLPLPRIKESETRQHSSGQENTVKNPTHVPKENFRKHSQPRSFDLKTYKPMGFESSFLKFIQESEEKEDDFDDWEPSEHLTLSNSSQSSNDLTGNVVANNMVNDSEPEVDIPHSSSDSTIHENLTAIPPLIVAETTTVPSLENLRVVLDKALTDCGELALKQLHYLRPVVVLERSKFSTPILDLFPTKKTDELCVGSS
UniProt Q9HBH5: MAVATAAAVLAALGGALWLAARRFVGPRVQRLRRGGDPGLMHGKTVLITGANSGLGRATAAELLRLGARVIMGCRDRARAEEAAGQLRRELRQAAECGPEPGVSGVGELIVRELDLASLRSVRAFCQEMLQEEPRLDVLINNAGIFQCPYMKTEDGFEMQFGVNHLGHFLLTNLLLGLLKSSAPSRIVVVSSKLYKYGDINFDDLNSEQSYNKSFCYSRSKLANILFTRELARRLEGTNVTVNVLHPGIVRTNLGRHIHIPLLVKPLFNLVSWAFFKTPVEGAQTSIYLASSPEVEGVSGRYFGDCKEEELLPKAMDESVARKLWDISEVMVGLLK
UniProt O43353, whole entry, looked up: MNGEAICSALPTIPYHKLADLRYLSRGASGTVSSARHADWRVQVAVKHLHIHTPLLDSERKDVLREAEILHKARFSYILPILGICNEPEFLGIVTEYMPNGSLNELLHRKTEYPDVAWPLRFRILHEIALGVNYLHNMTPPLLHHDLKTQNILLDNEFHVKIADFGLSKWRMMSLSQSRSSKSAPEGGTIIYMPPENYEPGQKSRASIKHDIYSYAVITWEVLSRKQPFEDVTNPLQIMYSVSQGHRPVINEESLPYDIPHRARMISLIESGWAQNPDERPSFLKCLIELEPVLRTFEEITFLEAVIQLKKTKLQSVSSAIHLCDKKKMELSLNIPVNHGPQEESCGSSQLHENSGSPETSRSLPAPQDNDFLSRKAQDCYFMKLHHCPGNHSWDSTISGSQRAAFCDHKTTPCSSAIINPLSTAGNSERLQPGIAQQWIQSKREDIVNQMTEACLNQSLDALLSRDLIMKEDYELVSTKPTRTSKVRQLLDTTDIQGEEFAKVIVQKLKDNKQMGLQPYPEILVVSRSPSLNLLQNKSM
UniProt Q4ADV7: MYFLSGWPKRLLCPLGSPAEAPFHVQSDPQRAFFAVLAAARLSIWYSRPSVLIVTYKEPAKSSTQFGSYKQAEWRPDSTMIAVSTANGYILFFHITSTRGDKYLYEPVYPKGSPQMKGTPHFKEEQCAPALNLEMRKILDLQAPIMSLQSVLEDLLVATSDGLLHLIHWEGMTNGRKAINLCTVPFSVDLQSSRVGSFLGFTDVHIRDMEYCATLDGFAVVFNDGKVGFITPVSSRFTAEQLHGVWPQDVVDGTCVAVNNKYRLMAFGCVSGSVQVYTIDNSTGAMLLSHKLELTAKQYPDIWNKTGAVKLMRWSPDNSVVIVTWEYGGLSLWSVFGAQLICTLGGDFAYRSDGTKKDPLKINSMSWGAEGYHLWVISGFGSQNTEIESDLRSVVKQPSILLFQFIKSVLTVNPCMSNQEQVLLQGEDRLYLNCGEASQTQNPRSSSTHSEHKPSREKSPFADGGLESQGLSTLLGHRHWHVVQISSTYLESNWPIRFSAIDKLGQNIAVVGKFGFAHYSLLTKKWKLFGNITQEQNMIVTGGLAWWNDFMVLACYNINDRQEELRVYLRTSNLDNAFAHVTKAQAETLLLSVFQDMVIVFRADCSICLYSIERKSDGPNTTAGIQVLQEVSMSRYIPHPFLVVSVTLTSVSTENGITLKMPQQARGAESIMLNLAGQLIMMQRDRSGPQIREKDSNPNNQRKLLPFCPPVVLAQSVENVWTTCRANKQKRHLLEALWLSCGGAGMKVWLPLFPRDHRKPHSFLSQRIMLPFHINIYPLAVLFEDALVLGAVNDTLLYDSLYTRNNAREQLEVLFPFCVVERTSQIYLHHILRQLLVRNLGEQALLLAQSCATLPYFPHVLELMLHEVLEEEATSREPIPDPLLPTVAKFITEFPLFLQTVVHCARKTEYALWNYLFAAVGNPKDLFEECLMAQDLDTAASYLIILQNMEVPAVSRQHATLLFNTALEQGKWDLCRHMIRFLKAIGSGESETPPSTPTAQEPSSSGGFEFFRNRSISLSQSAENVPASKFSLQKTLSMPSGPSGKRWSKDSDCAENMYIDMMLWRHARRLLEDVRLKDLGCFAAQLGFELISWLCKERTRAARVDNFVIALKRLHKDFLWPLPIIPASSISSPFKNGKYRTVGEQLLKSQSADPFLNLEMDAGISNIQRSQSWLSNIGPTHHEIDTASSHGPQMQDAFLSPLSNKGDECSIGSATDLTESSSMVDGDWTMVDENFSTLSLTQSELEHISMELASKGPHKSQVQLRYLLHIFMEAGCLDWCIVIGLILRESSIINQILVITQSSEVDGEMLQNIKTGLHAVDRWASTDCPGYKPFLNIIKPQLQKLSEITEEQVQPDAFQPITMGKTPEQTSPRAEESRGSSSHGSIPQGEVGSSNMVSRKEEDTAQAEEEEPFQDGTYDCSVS
UniProt P40938, whole entry, looked up: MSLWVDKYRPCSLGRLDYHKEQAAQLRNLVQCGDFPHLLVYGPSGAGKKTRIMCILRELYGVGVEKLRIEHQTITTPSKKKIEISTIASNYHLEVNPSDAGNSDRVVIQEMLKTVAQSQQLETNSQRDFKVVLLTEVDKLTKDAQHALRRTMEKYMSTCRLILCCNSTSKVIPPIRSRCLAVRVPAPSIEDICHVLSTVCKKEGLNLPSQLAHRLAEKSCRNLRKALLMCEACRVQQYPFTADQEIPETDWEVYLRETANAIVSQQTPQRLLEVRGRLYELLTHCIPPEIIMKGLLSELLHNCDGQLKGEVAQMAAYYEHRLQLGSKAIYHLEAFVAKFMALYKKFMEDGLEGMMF
UniProt Q9GZR2: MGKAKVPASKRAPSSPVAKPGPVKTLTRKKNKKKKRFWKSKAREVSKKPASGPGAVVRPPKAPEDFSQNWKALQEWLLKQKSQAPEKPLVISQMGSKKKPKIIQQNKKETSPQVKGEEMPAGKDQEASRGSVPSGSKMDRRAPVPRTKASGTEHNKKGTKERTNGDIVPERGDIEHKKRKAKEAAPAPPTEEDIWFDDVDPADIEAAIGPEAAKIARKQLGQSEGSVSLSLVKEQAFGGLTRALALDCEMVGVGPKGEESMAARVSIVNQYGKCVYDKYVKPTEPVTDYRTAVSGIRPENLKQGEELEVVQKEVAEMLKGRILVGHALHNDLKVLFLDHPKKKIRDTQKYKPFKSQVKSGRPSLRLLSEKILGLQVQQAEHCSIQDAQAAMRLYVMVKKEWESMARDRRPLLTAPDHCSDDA

The other results are listed elsewhere or left out.

Compound in the test: CC1Cc2ccccc2N1C(=O)C1CCCN(C1)C(=O)CCl (mixture of isomers) [TRIM25 ligand 11 (diastereomer mixture)]
Kind of test: probe-labelled cysteine peptide fold change vs DMSO (competition) (log2 fold change); higher = less target engagement (more negative = stronger competition). To be noted: THP-1, incubation time: 4 h.
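Further: competitive chemoproteomic profiling in live THP-1 cells with an iodoacetamide desthiobiotin (IA-DTB) probe, comparing probe-labelled peptide intensities in compound-treated cells against DMSO-treated controls.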

As to “RIN1_Q13671_623_LPATHCFQHLLR (UniProt Q13671)”, the “probe-labelled cysteine peptide fold change” value (10 µM) was -0.0806 and the “probe-labelled cysteine peptide fold change” value (50 µM) is -0.0262.
The matching figures for “RNASEH2C_Q8TDP1_34_DAVPATLHLLPCEVAVDGPAPVGR (UniProt Q8TDP1)”: -0.134 and -0.12.
The matching figures for “RMND5A_Q9H871_328+336_CWYHSIFACPILR (UniProt Q9H871)”: -0.0879 and -0.00521.
With “RGS14_O43566_183_ECLLAEAEGRPLREPGSSR (UniProt O43566)”, the “probe-labelled cysteine peptide fold change” value is -0.0379 (10 µM) and 0.0993 (50 µM).
The matching figures for “RMDN3_Q96TC7_288_AYSDMCELTEEVSEKK (UniProt Q96TC7)”: -0.187 and -0.0193.
The matching figures for “RFXANK_O14593_205_CVEALLAR (UniProt O14593)”: 0.0647 and 0.0947.
As to “RLF_Q13129_851_QDCINQPHLLNQTDK (UniProt Q13129)”, the “probe-labelled cysteine peptide fold change” value runs as follows: (10 µM) -0.0126; (50 µM) -0.235.
For the target “RDH14_Q9HBH5_148_LDVLINNAGIFQCPYMK (UniProt Q9HBH5)”, the “probe-labelled cysteine peptide fold change” value runs as follows: (10 µM) 0.333; (50 µM) -0.204.
In the same order, the values of “RIPK2_O43353_286_CLIELEPVLR (UniProt O43353)” are 0.0249 and 0.128.
The matching figures for “RIC1_Q4ADV7_818_EQLEVLFPFCVVER (UniProt Q4ADV7)”: 0.115 and 0.0689.
Regarding “RFC3_P40938_165_LILCCNSTSK (UniProt P40938)”, the “probe-labelled cysteine peptide fold change” value is -0.0961 (10 µM) and 0.0194 (50 µM).
In the same order, the values of “REXO4_Q9GZR2_248_ALALDCEMVGVGPK (UniProt Q9GZR2)” are -0.04 and 0.0782.
Turning to “RECQL4_O94761_636_MGVHCFLGLTATATR (UniProt O94761)”, the “probe-labelled cysteine peptide fold change” value reads like this: (10 µM) -0.0439; (50 µM) -0.0919.
Regarding “RIPK2_O43353_455_REDIVNQMTEACLNQSLDALLSR (UniProt O43353)”, the “probe-labelled cysteine peptide fold change” value by setting is: (10 µM) -0.181; (50 µM) -0.0668.
